Source: publication PMC2390755
No constants are given. Whether binding was seen depends on the method and setting. For part of these data: Binding seen in cells or lysates may run through a third protein. Some entries that bind do so weakly or less than the wild type.

Sequences of proteins named here, by UniProt entry; tags and fusion partners are left off.
UniProt Q24368: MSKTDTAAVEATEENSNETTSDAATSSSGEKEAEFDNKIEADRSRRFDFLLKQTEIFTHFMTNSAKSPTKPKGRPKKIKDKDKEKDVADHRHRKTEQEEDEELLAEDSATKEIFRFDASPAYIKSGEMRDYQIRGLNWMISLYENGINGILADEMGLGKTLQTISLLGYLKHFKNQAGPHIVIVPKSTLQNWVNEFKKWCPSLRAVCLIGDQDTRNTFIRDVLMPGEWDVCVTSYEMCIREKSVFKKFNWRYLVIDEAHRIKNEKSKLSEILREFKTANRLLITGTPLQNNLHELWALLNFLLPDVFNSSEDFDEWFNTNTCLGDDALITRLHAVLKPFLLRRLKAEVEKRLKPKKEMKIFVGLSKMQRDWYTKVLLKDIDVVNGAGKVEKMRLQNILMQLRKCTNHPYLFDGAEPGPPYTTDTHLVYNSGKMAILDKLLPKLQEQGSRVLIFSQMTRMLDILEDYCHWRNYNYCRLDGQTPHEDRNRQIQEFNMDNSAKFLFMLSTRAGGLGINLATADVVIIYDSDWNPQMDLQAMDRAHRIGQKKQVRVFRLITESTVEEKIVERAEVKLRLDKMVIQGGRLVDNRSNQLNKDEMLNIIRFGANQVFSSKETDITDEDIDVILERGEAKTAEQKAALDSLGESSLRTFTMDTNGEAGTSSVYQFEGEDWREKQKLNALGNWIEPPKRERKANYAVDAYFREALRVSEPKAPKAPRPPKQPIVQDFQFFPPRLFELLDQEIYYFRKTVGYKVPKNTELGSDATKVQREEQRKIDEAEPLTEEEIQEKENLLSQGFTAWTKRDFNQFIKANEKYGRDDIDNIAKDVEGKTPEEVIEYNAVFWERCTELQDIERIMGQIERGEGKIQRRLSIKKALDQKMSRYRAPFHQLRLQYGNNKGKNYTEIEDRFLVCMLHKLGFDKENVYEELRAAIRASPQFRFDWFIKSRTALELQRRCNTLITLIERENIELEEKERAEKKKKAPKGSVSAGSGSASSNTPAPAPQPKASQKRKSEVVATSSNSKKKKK
UniProt Q94517: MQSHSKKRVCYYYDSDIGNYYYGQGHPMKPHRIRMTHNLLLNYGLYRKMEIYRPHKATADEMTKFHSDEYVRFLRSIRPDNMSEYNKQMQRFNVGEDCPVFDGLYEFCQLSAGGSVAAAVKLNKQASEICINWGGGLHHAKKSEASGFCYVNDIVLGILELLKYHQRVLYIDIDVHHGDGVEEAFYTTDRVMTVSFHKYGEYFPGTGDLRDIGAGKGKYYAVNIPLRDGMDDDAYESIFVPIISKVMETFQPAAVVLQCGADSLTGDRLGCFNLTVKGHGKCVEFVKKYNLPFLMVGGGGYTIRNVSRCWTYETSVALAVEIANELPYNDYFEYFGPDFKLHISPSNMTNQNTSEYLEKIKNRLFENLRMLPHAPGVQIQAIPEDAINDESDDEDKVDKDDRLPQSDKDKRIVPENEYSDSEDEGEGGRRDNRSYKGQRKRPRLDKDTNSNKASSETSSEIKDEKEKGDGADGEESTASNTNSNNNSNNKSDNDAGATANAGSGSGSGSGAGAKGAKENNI

How the values were obtained:
[1] = molecular target: HA-6His-tagged ISWI (D. melanogaster) (UniProt Q24368); experiment: co-IP; anti-HA immunoprecipitation from salivary gland total protein extracts of the HA-tagged ISWI line and control extracts; Western blot for ISWI, Sin3A, Rpd3
[2] = molecular target: TAP-tagged ISWI (D. melanogaster) (UniProt Q24368); experiment: pull-down; tandem affinity purification of TAP-tagged ISWI from larval nuclear extracts (IPP150 buffer): IgG agarose, TEV cleavage, calmodulin resin, SDS elution; Western blot for ISWI, Sin3A, Rpd3; untagged extracts as control
[3] = molecular target: ISWI (D. melanogaster (endogenous in embryos)) (UniProt Q24368); experiment: co-IP; anti-ISWI antibody (4 ug) or generic IgG as control, 500 ug wild-type embryo protein extract, Catch and Release Kit; Western blot for ISWI, Sin3A, Rpd3
[4] = molecular target: HA-6His-tagged ISWI (D. melanogaster) (UniProt Q24368); experiment: co-IP; anti-HA immunoprecipitation on Superose-6 gel filtration fractions (#25, #33) of HisTrap-enriched larval nuclear extract; Western blot
[5] = molecular target: HA-6His-tagged ISWI (D. melanogaster) (UniProt Q24368); experiment: SEC; ISWI-enriched HisTrap fractions of larval nuclear extract on Superose-6 (15 mM Hepes-KOH pH 8, 250 mM KCl, 10% glycerol); fractions blotted for ISWI, Sin3A, Rpd3; elution at about 600 kDa
[6] = molecular target: HA-6His-tagged ISWI (D. melanogaster) (UniProt Q24368); experiment: co-IP; anti-HA (rat 3F10) immunoprecipitation from 0-16 h embryo protein extracts of the HA-6His-tagged ISWI line; control extracts without the transgene; Western blot for ISWI, Sin3A, Rpd3

Measured: binding

Rpd3 (from UniProt Q94517 1-521) (enzyme)
binds: all assays above
